From article PMC5958128 come the findings set out here.

These are yes or no findings as the source states them, for the method shown. Binding seen in cells or lysates may run through a third protein. Some results given as binding are weak or reduced against the parent protein; the word gives no strength.

The target of this test is T1, PEX2-mCitrine (human) (UniProt P28328).
T1 sequence: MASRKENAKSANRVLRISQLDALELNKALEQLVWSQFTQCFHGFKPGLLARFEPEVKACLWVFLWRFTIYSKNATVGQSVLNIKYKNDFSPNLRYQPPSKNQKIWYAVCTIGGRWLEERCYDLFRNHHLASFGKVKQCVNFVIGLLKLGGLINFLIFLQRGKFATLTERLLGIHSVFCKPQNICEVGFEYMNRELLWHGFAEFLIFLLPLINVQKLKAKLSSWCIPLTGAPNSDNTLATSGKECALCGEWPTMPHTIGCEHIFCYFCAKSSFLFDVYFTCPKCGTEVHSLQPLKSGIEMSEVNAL
The test can be described thus: co-IP; HeLa cells transfected with PEX2-mCitrine; lysate in RIPA buffer precipitated with GFP-TrapA nanobody on agarose beads; second wash in 500 mM NaCl; blot with anti-GFP and anti-PMP70.

B1: 70 kDa peroxisomal membrane protein (PMP70) (protein, UniProt P28288 1-659)
chain: MAAFSKYLTARNSSLAGAAFLLLCLLHKRRRALGLHGKKSGKPPLQNNEKEGKKERAVVDKVFFSRLIQILKIMVPRTFCKETGYLVLIAVMLVSRTYCDVWMIQNGTLIESGIIGRSRKDFKRYLLNFIAAMPLISLVNNFLKYGLNELKLCFRVRLTKYLYEEYLQAFTYYKMGNLDNRIANPDQLLTQDVEKFCNSVVDLYSNLSKPFLDIVLYIFKLTSAIGAQGPASMMAYLVVSGLFLTRLRRPIGKMTITEQKYEGEYRYVNSRLITNSEEIAFYNGNKREKQTVHSVFRKLVEHLHNFILFRFSMGFIDSIIAKYLATVVGYLVVSRPFLDLSHPRHLKSTHSELLEDYYQSGRMLLRMSQALGRIVLAGREMTRLAGFTARITELMQVLKDLNHGKYERTMVSQQEKGIEGVQVIPLIPGAGEIIIADNIIKFDHVPLATPNGDVLIRDLNFEVRSGANVLICGPNGCGKSSLFRVLGELWPLFGGRLTKPERGKLFYVPQRPYMTLGTLRDQVIYPDGREDQKRKGISDLVLKEYLDNVQLGHILEREGGWDSVQDWMDVLSGGEKQRMAMARLFYHKPQFAILDECTSAVSVDVEGYIYSHCRKVGITLFTVSHRKSLWKHHEYYLHMDGRGNYEFKQITEDTVEFGS
As to B1, the binding result was “binds”.
